Experimental data taken from the supplement of paper PMC3334620.
The full ranking holds about 33,000 sequences; the median of “E-score (-0.5 to 0.5)” is about -0.0034, and the highest 2% start at about 0.25. The list shows a part of the results.

target: T1, Yap3 (UniProt P38749); assay: PBM E-score (8-mer binding enrichment) (E-score (-0.5 to 0.5)); higher = stronger / more preferred TF binding; settings: protein concentration: 100 nM; construct: GST-full length
T1 sequence: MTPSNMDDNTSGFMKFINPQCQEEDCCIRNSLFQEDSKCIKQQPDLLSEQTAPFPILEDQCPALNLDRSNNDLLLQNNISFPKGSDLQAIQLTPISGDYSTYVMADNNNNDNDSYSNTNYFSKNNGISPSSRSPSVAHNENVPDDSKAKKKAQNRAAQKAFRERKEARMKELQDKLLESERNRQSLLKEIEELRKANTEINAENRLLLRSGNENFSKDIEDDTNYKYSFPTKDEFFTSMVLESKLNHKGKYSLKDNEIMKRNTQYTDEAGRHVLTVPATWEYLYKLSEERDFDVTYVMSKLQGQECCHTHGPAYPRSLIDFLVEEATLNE
Method: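 Universal 'all 10-mer' protein binding microarrays (Agilent AMADID 015681) probed with GST-tagged S. cerevisiae TFs (full-length or DBD) made by in vitro transcription/translation (PURExpress), about 100-200 nM. Bound TF was detected with fluorescent anti-GST. Each ungapped 8-mer (which stands for itself and its reverse complement) is scored by the PBM enrichment score (E-score), a modified Wilcoxon-Mann-Whitney statistic from -0.5 to +0.5, computed with the Universal PBM Analysis Suite. Scale: above 0.35 generally sequence-specific binding.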

Sequence | PBM E-score
AGATATTA | 0.162
GTGGAGTA | 0.0683
ACGTCTCG | -0.1
CATTAATA | 0.193
GCATAGAA | 0.0775
CAAGCGAG | 0.144
CATCCCCA | -0.12
AATAGAGA | 0.0381
ACGAACGG | 0.138
CCGCGCGC | 0.0469
ACCCAGTA | -0.0533
AACCGTGG | -0.172
ATCTCTTA | 0.0654
GGTAGACA | 0.018
CTGCTGCC | -0.169
AAGCAGCT | -0.0325
AGAGTCCC | -0.244
ATGTGCAC | -0.00048
CCCCGATC | -0.327
ACGAGGCT | 0.117
CTAATGGA | -0.0109
CTATATTC | 0.151

Sequence | PBM E-score
GGGCATGA | -0.136
ATTAACCA | 0.027
CCGAGCAG | -0.0496
AACACCAG | -0.165
AACGAGGT | -0.012
GTGTTTTA | 0.0994
CCTCCGGA | -0.139
TCAGCAGA | -0.00622
AGTACACT | -0.00694
GTTCCGAA | 0.182
TAGGGGGA | -0.202
TTTCAAAA | 0.169
AACTGGTA | 0.00808
GCTACAAC | -0.0246
TAGCGGGA | -0.192
AAGTGAGA | 0.00798
TAACTGCA | 0.172
CTACAATA | 0.19
CGCTCGTA | -0.0236
TCGATGAA | 0.0106
ATCATCAA | 0.123
ATTCTCTC | -0.00402

Sequence | PBM E-score
AGTTAAAT | 0.0662
GTCAAGCA | -0.29
CGGTCTCA | -0.167
GTCCCTCA | -0.112
ACAGTAAG | 0.153
ATCTCCAA | 0.131
CCGGAAGC | -0.101
AGTCGCTG | -0.0975
TAAGTGGA | 0.0566
ATTCAACC | -0.0129
GCGGTAGC | 0.121
ATACGGTA | 0.134
ATACCACA | 0.108
GAGTAGGC | -0.109
CACCTGGC | -0.0894
AGGTGCCA | -0.128
CTTGATGC | -0.174
AGATGGAG | 0.0683
GAAAAAAC | 0.255
CTTTCTCA | 0.165
ATAATGAT | 0.116
AAGAACTT | 0.0679

Sequence | PBM E-score
ACCCAACC | -0.0377
TCGGCAGA | -0.0575
GAGACGAA | -0.0555
GCGTCTCC | -0.0737
CTTCGTTC | 0.0138
CGAGACCC | 0.0569
CGTGTTCC | 0.0154
CCAGGTGA | -0.0411
ACCGCTTC | -0.241
AGGGGGAC | -0.337
ACCTAACC | 0.0916
CCAATCTC | 0.137
AAATCAAG | 0.108
ACATGACA | 0.177
CCAAATAA | 0.14
GTATCTTA | 0.267
ATGGTATG | 0.00998
AGCCATGG | -0.203
GCAGGTGA | -0.06
CTCATGTC | -0.164

Three entries from above, as a markdown table.

| Sequence | PBM E-score |
| --- | --- |
| GAGACGAA | -0.0555 |
| CGAGACCC | 0.0569 |
| ACCGCTTC | -0.241 |
